Experimental data taken from patent EP0296574A2 (F. HOFFMANN-LA ROCHE AG, priority 1987, dated 1988).

Experiments:
[1] = general procedure: Boc solid-phase peptide synthesis; benzhydrylamine (BHA) resin, styrene-1% divinylbenzene, 200-400 mesh (Beckman Instruments); symmetrical anhydrides of Boc amino acids; conditions: for isolated yield: whole synthesis; for step yield: late stage modification step
[2] = general procedure: Boc solid-phase peptide synthesis; BHA resin; symmetrical anhydrides of Boc amino acids; conditions: whole synthesis

Row | Substance | isolated yield [1] | crude mass ([2]; scale 0.3 mmol) | crude mass ([2]; scale 0.4 mmol) | step yield [1]
1 | Ac-YGWMT[NMeF]-NH2 | 11.6% | 110 mg | – | –
2 | Ac-Y[Nle]GW[Nle]T[NMeF]-NH2 | 31% | – | 480 mg | –
3 | PEPTIDE1{[ac].[Tyr(SO3H)].G.W.M.[Thr(SO3H)].[NMePhe].[am]}$$$$V2.0 | – | – | – | 61%
4 | PEPTIDE1{[ac].[Tyr(SO3H)].[Nle].G.W.[Nle].[Thr(SO3H)].[NMePhe].[am]}$$$$V2.0 | – | – | – | 66%

For part of these data: Strings that start with PEPTIDE1 are HELM notation: dots part the residues, brackets hold end groups and non-standard residues. [ ]: non-standard residue; d: D form. NMeF = CN[C@@H](Cc1ccccc1)C(=O)O; Nle = CCCC[C@H](N)C(=O)O
